No constants are given. Whether binding was seen depends on the method and setting. In cells and extracts the contact can be indirect. Some binding calls cover weakened binding; strength is not graded here.
T1: aquaporin-8 (human (endogenous in B1647)) (UniProt O94778)
T1 sequence: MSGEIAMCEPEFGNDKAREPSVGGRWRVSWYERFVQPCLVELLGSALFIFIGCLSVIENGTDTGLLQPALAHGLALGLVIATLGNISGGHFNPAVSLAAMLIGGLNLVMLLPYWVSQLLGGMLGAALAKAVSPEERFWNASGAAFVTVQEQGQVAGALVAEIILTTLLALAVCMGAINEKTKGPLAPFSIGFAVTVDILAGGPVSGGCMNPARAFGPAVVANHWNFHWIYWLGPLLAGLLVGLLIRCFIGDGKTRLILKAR

T2: Nox2 (gp91-phox) (human (endogenous in B1647)) (UniProt P04839)
T2 sequence: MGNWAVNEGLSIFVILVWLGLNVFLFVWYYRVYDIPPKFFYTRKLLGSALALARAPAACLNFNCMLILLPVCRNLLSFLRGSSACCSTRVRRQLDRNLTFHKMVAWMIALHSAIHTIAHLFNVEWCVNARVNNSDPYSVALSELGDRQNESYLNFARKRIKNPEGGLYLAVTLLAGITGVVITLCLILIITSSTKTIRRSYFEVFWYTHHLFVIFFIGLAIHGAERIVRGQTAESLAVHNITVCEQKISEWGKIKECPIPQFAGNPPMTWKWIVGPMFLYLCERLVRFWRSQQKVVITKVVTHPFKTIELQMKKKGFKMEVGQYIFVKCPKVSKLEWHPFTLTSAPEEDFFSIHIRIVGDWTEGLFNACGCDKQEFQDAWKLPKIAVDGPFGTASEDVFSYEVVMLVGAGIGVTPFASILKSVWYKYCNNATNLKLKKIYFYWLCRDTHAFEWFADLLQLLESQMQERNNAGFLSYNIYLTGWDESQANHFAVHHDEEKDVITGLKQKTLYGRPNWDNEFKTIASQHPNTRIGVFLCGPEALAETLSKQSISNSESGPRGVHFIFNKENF

B1: Nox2 (gp91-phox) (protein, UniProt P04839 1-570)
chain: T2 sequence
B2: aquaporin-8 (protein, UniProt O94778 1-261)
chain: T1 sequence

Assays:
[1] = target: T1, aquaporin-8 (human (endogenous in B1647)); test: co-IP; B1647 cells, control or treated with SFN for 24 h, lysed in RIPA buffer; lysates incubated overnight with anti-AQP8 antibody, protein G-agarose 1.5 h at 4°C, 5 washes with buffer pH 8; Western blot with anti-Nox2
[2] = target: T2, Nox2 (gp91-phox) (human (endogenous in B1647)); test: co-IP; reverse ('vice-versa') immunoprecipitation: IP for Nox2 and WB for AQP8, B1647 cells; data not shown

| Binder | binding [1] | binding [2] |
| --- | --- | --- |
| B1 | binds |  |
| B2 |  | binds |

— PMC6276444
